Reference: PubChem BioAssay AID1508600 (Functional Genomics Laboratory (NCATS/FGL), 2020)
About 3,700 (7%) of roughly 53,000 sequences were called active.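 Rule for the calls: active = gene knockdowns whose robust z-score for IL-1 alpha signal is at least 2 or at most -2, so actives lie on both sides; inactive = the rest.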 The list shows a part of the results.

assay: Components of the Cytosolic LPS Sensing Pathway: Gene Identification via Genome-wide siRNA Screen; conditions: RAW264.7 macrophages, IL-1a HTRF, actives lie on both sides, screened at 100 nM (by protocol), cells primed 5 h with Pam3CSK4 first;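 note: robust z of the log signal after scaling to non-targeting control siRNA wells of the plate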
Summary of the method: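 Using IL-1a HTRF as read-out, the screen measured release from RAW264.7 cells after 48h siRNA knockdown (100 nM), 5 h Pam3CSK4 priming and 24 h cytosolic LipidA. Values were expressed relative to negative-control wells as robust z-scores.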

Sequence	z-score
GGAGAAUUUGGAGGUUUUGTT against Rbbp4	inactive: 1.82
GCAUGAAGGUCGACUACGATT against Clk3	inactive: -1.14
GGUGGAAUCGUUUUGCUGUTT against Col15a1	inactive: 0.155
GGUCUUUUACAAAAUUCCCTT against Has3	inactive: -0.509
GCAGCAUAUGAACACAAUATT against Ccdc186	inactive: 0.578
GGCUAAAACAGGAAAUCUGTT against Mip	inactive: -0.398
GGAUAUACAUCUGAAGAUGTT against Mphosph8	inactive: 0.242
GGCCACAAAGACUCUGUGATT against Aamp	active: -2.25
CGAGUUAGCCUUCAUCCCUTT against Islr	inactive: -0.409
GGACAUUUUUAUGCACAAUTT against Il1rl2	inactive: 1.76
GGCCAUGGAGAAGUACAACTT against Dynll2	inactive: 0.986
GGAGCUAAUCGAGAAAAUGTT against Arl8a	inactive: -0.434
GGGACGCAGUUUUCCGAUGTT against Nkx2-3	inactive: 0.73
GGCAAAGAUAAUAAAGCUATT against Xpo1	inactive: -0.967
GGGAUGGAUUUAGAUAUAATT against Ier3ip1	inactive: 0.623
GGUCAAACAAGAAACAGUUTT against Prdm1	inactive: 0.417
CCAUCUUGACAUCUCGUGUTT against Olfr592	inactive: -1.9
GGAAAGGGCGGUUCAAAAGTT against Cacnb1	inactive: 0.234
GGGAGAUCUCCAACACCAATT against Dipk1b	inactive: -1.02
GGGACUGCUCUUUUCUCUCTT against Rabif	inactive: 0.354
GGAACAGAAGAAAAAACACTT against Ftsj3	inactive: 1.19
GGGUUAUUCAAGAAAAGCATT against Stip1	inactive: -0.162
CGACAGAGUUAAAUACUAGTT against Tango2	inactive: -0.123

Sequence	z-score
CCUCAAUGGGUUUGUUCAATT against Kcns3	inactive: 1.86
GGAAAUGGAAGAGCAAAUUTT against Nol11	inactive: 0.836
GGAAAUGGCUAUUGAUAUCTT against Actl6b	inactive: 0.126
CCCUUUCGAGGUGGUAAAATT against Slc25a21	inactive: 0.11
GCAUCUGGAAUUAUGGGUCTT against 2310030G06Rik	inactive: 0.284
GGCUUUUCCAAGACCUUUCTT against Awat2	inactive: 0.819
GCUGGGUUAUGAGAUUUCUTT against Tns2	active: 2.26
CCUCGGUCAGAUUCCUGAUTT against Phpt1	inactive: 0.101
GGAAAUUGGAGAUUUUUCCTT against Ccdc54	inactive: -1.02
GAUGUCCUUCACCUUUGCCTT against Atp5d	inactive: -1.9
GCCCAGGUCUAAUGUCUAATT against Tac4	inactive: 0.234
GGGCUCAUGGCUUUGUUUUTT against Ciao2b	inactive: 0.215
GGUAGAGAACCAUUUGCUGTT against Dtnbp1	inactive: -0.376
CGAAUGGCAUACAAUAACCTT against C1qtnf7	inactive: 0.278
UAGAAUUGAUUGAGGACUCTT against Ly6c1	inactive: 0.602
GGGACUUUGGUCAAUAAUGTT against Tcf19	inactive: 0.247
CCAGCAUUGAUAGACAGAUTT against Fam234a	inactive: 0.836
GGAUUUAAUGUACUAUGUGTT against 2210408I21Rik	inactive: -1.21
GGAAUGUGUUCCAUAAUUUTT against Syn2	inactive: -0.201
CCCACUAAAAUCCUAUCUCTT against Ggta1	active: -2.57
GGCCUAUCUUCCCAGGAAATT against Mapk1	inactive: 0.969
GGUCCAAGUUACAGCAAAATT against Vmn1r80	inactive: 0.989
GGAGCUGGAUUCGACGUGATT against Cacna1c	inactive: -0.775

Shown field by field: part of the list above
GGCCUAUCUUCCCAGGAAATT against Mapk1
  z-score: inactive: 0.969
GGUCCAAGUUACAGCAAAATT against Vmn1r80
  z-score: inactive: 0.989

The listing continues.

Sequence	z-score
GGAAAUGUGGGAGAAAAUATT against H2-M1	inactive: -1.36
GGAUGAAGAUGUGUCAAUATT against Api5	inactive: 0.889
GGUCUGUUCUGUACUGAAGTT against Pde4dip	inactive: -0.0657
GGGAAUUUAAUUUUUCGUGTT against Sfn	inactive: -0.642
GGACUGAUUGCUUUAGUAATT against Olfr1184	inactive: -0.381
GGUGCUGAUUGACCUAACATT against Wdtc1	active: -2.24
GGGUCCUGAUAAUGUCCUATT against Tlr1	inactive: 1.61
GGAUCAGAUAAAAUACCAATT against Oas2	inactive: 0.997
GGUCACAACCAUGAAGAGCTT against 1700093K21Rik	inactive: -0.619
GCAAUCUUAGGUUCAUGGUTT against Vmn2r-ps105	inactive: 0.511
GGCCAGCUAGAGUUAUAUGTT against Foxred2	inactive: 0.58
GCUGUCAUUCUGUGGUCCATT against Olfr538	inactive: -0.346
GCGGAGAGUUAAUGUUUCUTT against Cbx3	inactive: 0.188
GGGAUCUUCGGAACUUAGUTT against Pde1a	inactive: 0.554
GGAUUUUCGGGACUCUUUATT against Sfmbt1	inactive: 1.17
GGAGAACGUGGUACAAAGUTT against Sncg	inactive: -1.27
GCGUGUCACACUAUGAGUUTT against Vwa1	inactive: 0.626
GGUGGUAGAACUGUUAAAATT against Klc2	inactive: 0.311
CGGGCAAUGUCAGAUUGUGTT against Vmn1r75	inactive: 1.41
GGAAUUUGAGAUCUACACUTT against Zfp398	inactive: 1.59
GGGUUGGAAGCAAUUGCUGTT against Ubtd1	inactive: 0.544
GGAGUCUCCUAAAAAAGGATT against Tcof1	inactive: 0.79

Given as labelled records: part of the list above
GCUGUCAUUCUGUGGUCCATT against Olfr538
  z-score: inactive: -0.346
GCGGAGAGUUAAUGUUUCUTT against Cbx3
  z-score: inactive: 0.188
